According to PubChem BioAssay AID602254 (Broad Institute, 2012):
The campaign covered roughly 1,000 compounds. Fewer than 10 were called active.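 Rule for the calls: active = fitted half-maximal concentration no higher than twice the top valid tested dose, with signal falling; inconclusive = flat curve with 30 to 70% inhibition, or poor fit; inactive = the rest.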 The list shows a part of the results. Potency and affinity values are given separately.

target: Golgi-associated PDZ and coiled-coil motif-containing protein (Homo sapiens) (UniProt Q9HD26); test: blockers of CAL PDZ–TMR peptide complex – biochemical, fluorescence polarization, untagged CAL PDZ, cherry-pick, set 2, dose response (AID 602254); conditions: Purified CAL PDZ; at 60 µM (top of the series);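 note: 0% = DMSO neutral control and -100% = unlabeled peptide PRC23 positive control; more negative means stronger blocking of peptide binding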

Activity change, negative = inhibition, inactive:
CC(=O)c1cc(Cl)ccc1OCC(=O)Nc1cccc(S(=O)(=O)N2CCCC2)c1 6.73%
COc1ccc(CCNS(=O)(=O)c2ccc(-n3cnnn3)c(OC)c2)cc1OC 1.4%
N#Cc1c(N)c(C#N)c(-c2ccc(O)cc2)c2c1CCCC2 -0.315%
O=C(O)c1ccccc1CSc1nnnn1-c1ccccc1 0.49%
C/C(=N\NS(C)(=O)=O)c1ccccc1 -0.401%
CCCCc1ccc(S(=O)(=O)Nc2nnc(C)s2)cc1 -0.202%
COc1ccccc1CNc1ccc2nnc(CCNC(=O)c3ccccc3)n2n1 9.53%
Cc1c(C(=O)N2CCCCC2)c(S(=O)(=O)N2CCC(C)CC2)c(C)n1C -2.2%
Cc1c(C(=O)N2CCCCC2)c(S(=O)(=O)NCc2ccc(Cl)cc2)c(C)n1C -4.68%
Cc1ccc(C(c2nnnn2C2CCCCC2)N2CCc3ccccc32)cc1 (stereo unspecified) 0.143%
N#CCCN(Cc1ccccc1)C(=O)c1cccs1 8.34%
CN(C)CCCNC(=S)Nc1ccc(Oc2ccccc2)cc1 -9.71%
CCn1nc(C(=O)Nc2cc(Cl)ccc2-n2cncn2)c2ccccc2c1=O 1.96%
COc1ccccc1NC(=O)Cn1cnc2c(cnn2-c2ccccc2)c1=O -2.97%
O=C(Nc1cccc(C(=O)N2CCCCC2)c1)C1CC1 -0.502%
CCOc1ccccc1C(=O)NCC(=O)OCc1csc(CC(=O)Nc2ccc(C)cc2)n1 -1.29%
COc1ccccc1-n1cc(-c2ccccc2)c2c(=S)nc[nH]c21 2.01%
C#CCN1[C@@H]2CCN(C2)c2cc(Br)ccc2S1(=O)=O -14.6%
Cc1cccc(C)c1NC(=O)NCCCN1CCN(c2ccccc2)CC1 2.69%
Cc1ccc(NS(=O)(=O)c2cccc(C(=O)NC3CCN(Cc4ccccc4)CC3)c2)cc1 1.86%
COc1ccc(CCNc2nc(-c3cccc(NC(C)=O)c3)cs2)cc1OC -0.077%
CC(=O)n1cc(/C=N/NC(=O)c2ccccc2Cl)c2ccccc21 2.62%
Cc1cccc(C(=O)OC(C)C(=O)N2CCc3ccccc3C2)c1C (stereo unspecified) -1.26%
CCC(C)NC(=O)c1ccccc1-c1ccccc1C(=O)NC(C)CC (stereo unspecified) 1.82%
COc1ccc(-c2[nH]ncc2CNC(C)CCn2cccn2)cc1F (stereo unspecified) -0.462%
O=c1[nH]c2ccccc2cc1CN(CC1CCCO1)S(=O)(=O)c1ccccc1 (stereo unspecified) 1.42%
CC(=O)c1c(C)[nH]c(C(=O)COC(=O)c2c(-c3ccccc3)noc2C)c1C 1.61%
COc1cc(-c2noc(CCCC(=O)Nc3cccnc3)n2)cc(OC)c1OC 0.328%
Cc1ccc(NC(=O)c2cc(NC(=O)c3ccccc3C(=O)O)ccc2N2CCCCC2)cc1 2.4%
O=C(NCc1ccncc1)C(=O)N/N=C/c1ccccn1 -0.098%
COc1ccccc1OCCC(=O)OCC(=O)Nc1ccc(Br)cc1F -0.071%
Cn1cccc1C(=O)N1CCc2ccccc2C1 0.348%
COc1cccc(-c2ccnc3[nH]n(-c4ccccc4)c(=O)c23)c1 -0.972%
N#CCc1nn(-c2ccccc2)c2ncnc(N)c12 -0.48%
CC(C)CNC(=O)COC(=O)c1n[nH]c2ccccc12 2.38%
CC(C)CCNC1c2ccccc2C(=O)N1Cc1ccccc1 (stereo unspecified) -1.1%
COc1cccc(N2CCN(CC(=O)NCc3ccccc3)CC2)c1 2.69%
CCOC(=O)C1CCN(C(=O)/C(=C/c2ccccc2)NC(=O)c2ccccc2)CC1 -2.12%
COCCNC(=O)c1ccc(S(=O)(=O)N2CCCc3ccccc32)cc1 -2.82%
COc1ccc(OC(C)C(=O)NCc2cccnc2)cc1 (stereo unspecified) 1.53%
CC(=O)N1CCC(=NNC(=O)c2cc3ccccc3cc2O)CC1 -2.91%
O=C(COC(=O)COc1ccc(Br)cc1)NCC1CCCO1 (stereo unspecified) -4.89%
CN(C(=O)COc1ccc(Cl)cc1Br)C1CCCCC1 3.51%
COc1ccc(OCCSc2nnc(C(C)NC(=O)c3ccccc3F)n2C)cc1 (stereo unspecified) -3.42%
Cc1ncoc1C(=O)NCCC(c1ccccc1)c1ccccc1 -1.22%
O=C(O)C1CCCN1c1nc(-c2ccc(Cl)c(Cl)c2)cc(C(F)(F)F)n1 (stereo unspecified) 3.38%
O=C(O)CCCCCN1C(=O)CCC1=O -0.248%
c1cncc(CSc2ccc(-c3ccc4c(c3)OCO4)nn2)c1 8.45%
Cc1ccnc(NC(=O)c2ccc(Br)s2)c1 1.55%
O=C(NCc1ccccc1Cl)C1CCN(S(=O)(=O)N2CCOCC2)CC1 2%
CCc1ccc(NC(=S)Nn2cnnc2)cc1 2.79%
CC1CC(C)CN(C(=O)CCn2c(=O)oc3ccccc32)C1 (stereo unspecified) 2.08%
CCC(C(=O)OCn1nnc2ccccc2c1=O)c1ccccc1 (stereo unspecified) 5.24%
CC1CCN(C(=O)CNC(=O)c2ccc(Cl)cc2Cl)CC1 -2.7%
CC1CCCCN1C(=O)c1cccc(NC(=O)c2ccccc2)c1 (stereo unspecified) 3.68%
COc1ccccc1-c1c(C)nn2c(N)c(-c3ccccc3)cnc12 -0.491%
COc1ccccc1C(=O)Nc1cccc2nc(C)ccc12 0.557%
O=C(c1ccc(S(=O)(=O)N2CCCC2)cc1)N1CCCCCC1 4.45%
CCN(CCn1cccn1)C(=O)c1cc(COc2ccc(F)c(F)c2)on1 -13.3%
CCOC(=O)Cc1nc2ccccc2n(CC#N)c1=O -9.09%
CCn1c(SCc2ccc(F)cc2)nnc1C1CCN(S(=O)(=O)c2ccc(OC)cc2)CC1 0.126%
O=C(CC1C(=O)NCCN1Cc1cccc(F)c1)NCCCCCN1CCOCC1 (stereo unspecified) -5.11%
COc1cccc(CNS(=O)(=O)c2ccc3c(c2)CCN3C(=O)C2CC2)c1 1.54%
O=C(NCc1ccc(F)cc1)c1c2c(nc3ccccc13)CCN(Cc1ccccc1)C2 -1.25%
CC12CN3CC(C)(CN(C1)C3c1ccc3ccccc3c1O)C2=O (stereo unspecified) -1.9%
COc1ccc(NC(=O)CNC(=O)C2CCCCC2)cc1 -5.22%
OCCCc1cn(Cc2ccccc2)c2ccccc12 -0.804%
CCOCC(=O)Nc1cccc(OC)c1 1.45%
COc1cccc(OC)c1C(=O)NNC(=O)c1ccc(F)cc1 -0.882%
COc1cc2c(cc1OC)CN(C(=S)Nc1ccccc1Cl)CC2 1.93%
O=C(NN1CCOCC1)c1cc(-c2ccc(Br)cc2)nc2ccccc12 -1.93%
O=C(c1ccc(S(=O)(=O)NCC2CCCO2)cc1)N1CCN(c2cccc(Cl)c2)CC1 (stereo unspecified) -0.491%
CC(=O)NC(Cc1ccccc1)C(C)=O (stereo unspecified) -0.274%
OCCC1CN(Cc2ccc3cc(Cl)ccc3n2)CCN1Cc1ccsc1 (stereo unspecified) -0.428%
COc1ccc(-c2csc(N3C(=O)CNC3=S)n2)cc1 -9.99%
C/C(=N\NC(=O)c1cc(-c2ccncc2)nc2ccccc12)c1ccc(OC(F)F)cc1 -1.04%
Cc1ccc(OCCCCn2ccnc2C)c(C)c1 -1.32%
COC(=O)Cc1c(O)ccn(Cc2ccccc2OC)c1=O -1.16%
CCOc1cc(/C=N/n2c(C)nc3sc(C)c(C)c3c2=O)ccc1O -4.47%
O=C(c1cccc(S(=O)(=O)NCc2ccccc2)c1)N1CCCC1 1.42%
Cc1ccc(N2CC(C(=O)Nc3ccc(N(C)C)cc3)CC2=O)cc1C (stereo unspecified) -1.28%
Cc1ccc(CN2C(=O)c3ccccc3NC2c2ccccn2)cc1 (stereo unspecified) 0.651%
Cc1ccc(C(C(=O)NC(C)(C)C)N(CC2CCCO2)C(=O)CCC(=O)Nc2ccccn2)cc1 (stereo unspecified) 2.71%
COc1ccc(CCn2c(=S)[nH]c3ccc(N4CCOCC4)cc3c2=O)cc1OC -1.9%
COC(=O)c1ccccc1NC(=S)N1CCN(C2CCCCC2)CC1 0.591%
Cc1cccc(N(CC(=O)NC2CCCCC2)C(=O)CCCC(=O)Nc2ccccn2)c1 0.807%
CCOc1ccccc1NC(=O)C(=O)N/N=C/c1cc(Br)ccc1O -0.611%
CN(C)S(=O)(=O)c1cc(NC(=O)Cn2ccsc2=N)ccc1Cl -1.36%
O=C(Nc1cccnc1)c1cccc(S(=O)(=O)N2CCc3ccccc32)c1 6.77%
COc1ccc(/C=C2/SC(=S)N(CCCC(=O)Nc3ccc(O)cc3)C2=O)cc1 1.95%
CN1CCN(C(=O)c2cc(Cl)cc(Cl)c2)CC1 -0.529%
CC(O)CNCCCOc1cccc(Oc2ccccc2)c1 (stereo unspecified) 1.94%
C=CCNC(=S)NNC(=O)c1ccc(C)c(Cl)c1 0.039%
CCOC(=O)N1CCN(C(=O)c2ccc3c(=O)n(-c4ccc(OC)cc4OC)c(=S)[nH]c3c2)CC1 1.69%
CC1CCCC(NC(=O)C2CCN(S(=O)(=O)c3cnc[nH]3)CC2)C1C (stereo unspecified) -0.792%
COc1ccc(OC)c(NC(=O)N2CCCC(C(=O)c3ccccc3OC)C2)c1 (stereo unspecified) -2.85%

Three structures from above, sorted by number of heavy atoms, low to high.
Activity change, negative = inhibition, inactive:
N#Cc1c(N)c(C#N)c(-c2ccc(O)cc2)c2c1CCCC2 -0.315%
Cc1ccc(CN2C(=O)c3ccccc3NC2c2ccccn2)cc1 (stereo unspecified) 0.651%
Cc1ccc(NS(=O)(=O)c2cccc(C(=O)NC3CCN(Cc4ccccc4)CC3)c2)cc1 1.86%
